This passage reports binding results from article PMC13163009, “Pyrimethamine Restores KEAP1-Mediated Degradation of Select NRF2 Mutants in Esophageal Squamous Cell Carcinoma” (Cancers, 2026).

Amino acid sequences for entries named in this document (tags omitted). Residues count along the entry.
UniProt Q14145, residues 321-611: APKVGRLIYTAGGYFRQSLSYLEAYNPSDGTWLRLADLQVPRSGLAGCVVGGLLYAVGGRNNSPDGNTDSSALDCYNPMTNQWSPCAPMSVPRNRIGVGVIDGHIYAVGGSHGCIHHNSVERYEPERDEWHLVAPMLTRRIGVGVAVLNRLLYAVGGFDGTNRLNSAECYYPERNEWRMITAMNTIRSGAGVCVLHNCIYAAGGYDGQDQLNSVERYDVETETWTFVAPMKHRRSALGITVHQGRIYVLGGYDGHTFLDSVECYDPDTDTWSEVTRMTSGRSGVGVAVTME

The target in the experiment is Kelch fragment (Ala321-Glu611 of human KEAP1 protein) (human) (UniProt Q14145). Nature of the experiment: SPR; Biacore S200; biotinylated Kelch immobilised on a streptavidin chip; DLG peptides as analytes, 2-fold dilutions from 200 uM to 0.39 uM; 30 uL/min, 90 s association, 180 s dissociation; analysis at 15 °C; also run with PYR mixed into the analyte with the DLG peptides; both purified. Background: In SPR one partner is held on a chip, and binding of the other changes the refractive index at the surface.

Results are given in words; binding and its absence hold for the method and conditions named. Some results given as binding are weak or reduced against the parent protein; the word gives no strength.

For the molecule MDLIDILCRQDIDLGVSREVFDFS [DLG^W24C peptide (NRF2 residues 17-40 with W24C)], the binding result was “binds weakly”.
